According to PubChem BioAssay AID1487 (National Center for Advancing Translational Sciences (NCATS), 2009):
The other results are listed elsewhere or left out. These are further read-outs of the screen, such as a control signal, another cell line or another target. No call is given for them. Most of these compounds were active or inconclusive in the main read-out, so they are no random draw. Words in brackets tell the shape of the fitted curve; partial curves, single points and poor fits give uncertain potencies.

Experiment: qHTS Assay for Modulators of Lamin A Splicing
Conditions: HeLa LMNA splicing GFP/RFP minigene ratio, 48 h
Summary of the method: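 Read-out is the ratio of GFP to DsRed2 object intensity, acquired by 488 nm laser-scanning cytometry on HeLa lamin A-EGFP minigene reporter cells. Compound incubation 48 hrs at 37 °C in Opti-MEM with 2% FBS; DMSO 0.5% final.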

[1] = measured here: GFP splicing reporter channel
[2] = measured here: RFP viability control channel

SMILES	AC50 [1]	AC50 [2]
CCOc1ccc(S(=O)(=O)N2CCc3cc(OC)c(OC)cc3C2)cc1	31.6 µM [rising, single point]	35.5 µM [rising, single point]
Nc1nnc(COc2cccc(C(F)(F)F)c2)s1		35.5 µM [rising, single point]
CCc1ccc(N2C(=O)c3sc4nnc(C)c(=O)n4c3C2=O)cc1	25.1 µM [rising, single point]	15.8 µM [rising, single point]
O=C(NCCc1ccccc1)c1ccc(CSc2nc3cccnc3n2Cc2ccccc2)cc1	25.1 µM [falling, partial curve]	35.5 µM [falling, partial curve, poor fit]
COC(=O)c1cccc(OCC(O)Cn2cnc3cc(C)c(C)cc32)c1 (centres undefined)		31.6 µM [rising, single point]
Cc1cccc(CSCCNC(=S)Nc2ccccc2)c1	11.2 µM [rising, single point]	17.8 µM [rising, single point]
CCOC(=O)c1nnn(-c2nonc2N)c1-c1cccs1	35.5 µM [rising, single point]	
CCc1nc(N2CCN(Cc3ccc4c(c3)OCO4)CC2)c2oc3ccccc3c2n1	7.94 µM [falling, partial curve]	7.08 µM [falling, partial curve]
O=C(NNC(=O)c1ccncc1)Nc1cccc([N+](=O)[O-])c1		0.00355 µM [falling, full curve, poor fit]
CC1=NN(c2ccc(S(=O)(=O)O)cc2C)C(=O)C1	0.141 µM [rising, full curve, poor fit]	0.316 µM [rising, full curve, poor fit]
CC(C)CC(=O)Nc1ccc(C(=O)NNC(=S)NC(=O)C2CCCCC2)cc1		31.6 µM [rising, single point]
Cc1cc(C)cc(NC(=S)NCc2ccc3[nH]c4c(c3c2)CCCC4)c1	12.6 µM [rising, partial curve, poor fit]	20 µM [rising, partial curve]
COc1ccc(NC(=O)CCCN2C(=O)/C(=C\c3ccco3)SC2=S)cc1		2.82 µM [rising, full curve, poor fit]
COc1ccc(C(=O)c2c(C(F)(F)F)oc3c2C(=O)c2ccccc2C3=O)cc1	3.16 µM [falling, full curve]	5.01 µM [falling, full curve]
CCC(=O)Nc1ccccc1Nc1cc(C#N)c(C#N)cc1[N+](=O)[O-]	17.8 µM [rising, single point]	15.8 µM [rising, single point]
Cc1cc(C)nc(SCSc2nc(C)cc(C)n2)n1		3.55 µM [rising, single point]
COc1ccc(N2COC3c4cccc5cccc(c45)C32)cc1 (centres undefined)		15.8 µM [falling, single point]
COc1ccc(OC)c(NC(=O)CSc2nnc(Cc3cccn3C)n2CCc2ccccc2)c1	0.562 µM [falling, full curve]	0.794 µM [falling, full curve, poor fit]
CN1CCN(CCCC(=O)c2ccc(C3CCCC3)cc2)CC1	3.98 µM [rising, partial curve, poor fit]	7.08 µM [rising, single point]
CCN(CC)S(=O)(=O)c1cccc(NC(=O)Nc2cccc(C(F)(F)F)c2)c1	35.5 µM [rising, single point]	35.5 µM [rising, single point]
O=C(NCCc1c[nH]c2ccccc12)C(=O)NCC1OCCCN1S(=O)(=O)c1ccccc1 (centres undefined)	12.6 µM [rising, single point]	15.8 µM [rising, single point]
CCc1ccc(NC(=O)COc2ccc(F)cc2C(=O)c2cnn(-c3ccccc3)c2)cc1	35.5 µM [rising, single point]	10 µM [rising, partial curve, poor fit]
COc1ccc(C(=O)CSc2nnc(CN3CCCCC3)n2-c2ccc(Cl)cc2)cc1OC	15.8 µM [rising, single point]	10 µM [rising, partial curve]
CCOc1cccc2sc(N(Cc3cccnc3)C(C)=O)nc12		0.0891 µM [rising, full curve]

As entered above.
In AC50 [2], CC(C)CC(=O)Nc1ccc(C(=O)NNC(=S)NC(=O)C2CCCCC2)cc1 has 31.6 µM [rising, single point]
In AC50 [2], COC(=O)c1cccc(OCC(O)Cn2cnc3cc(C)c(C)cc32)c1 (centres undefined) has 31.6 µM [rising, single point]
